We go through one sequence from article PMC4057782.

Chains of the proteins cited; added tags and fusions are not shown. Lines headed by an entry give the natural chain unless they say otherwise; changes in a name come on top.
UniProt P49591: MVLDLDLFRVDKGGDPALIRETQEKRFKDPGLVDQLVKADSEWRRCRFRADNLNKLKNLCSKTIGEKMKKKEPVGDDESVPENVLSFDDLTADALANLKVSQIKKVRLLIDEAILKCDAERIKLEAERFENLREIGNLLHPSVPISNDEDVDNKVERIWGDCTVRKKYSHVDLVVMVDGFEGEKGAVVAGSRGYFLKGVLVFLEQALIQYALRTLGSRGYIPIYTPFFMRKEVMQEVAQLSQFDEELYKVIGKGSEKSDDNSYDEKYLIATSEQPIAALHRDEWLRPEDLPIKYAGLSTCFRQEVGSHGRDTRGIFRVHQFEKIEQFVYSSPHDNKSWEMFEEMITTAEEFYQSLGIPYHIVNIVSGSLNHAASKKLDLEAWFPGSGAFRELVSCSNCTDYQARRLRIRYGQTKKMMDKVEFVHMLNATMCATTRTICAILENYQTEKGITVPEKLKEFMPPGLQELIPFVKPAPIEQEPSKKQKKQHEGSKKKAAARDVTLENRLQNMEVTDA

For at least one entry, the source does not settle the construct or the ends of the probe. A weaker result is weaker than the reference pair of the same experiment.

Data set [1] addresses SerRS delta insertion I del75-97 (Homo sapiens) (UniProt P49591). Briefly: EMSA. Particulars: dramatically weakened; EMSA: 20 mM Tris-HCl pH 8.0, 60 mM KCl, 5 mM MgCl2, 0.1 mg/ml BSA, 10 ng/ul poly(dG-dC), 1 mM DTT, 30 min, room temperature; recombinant protein; label: 5' 32P; letters put together from the description.
Data set [2] addresses SerRS delta insertion II del254-261 (Homo sapiens) (UniProt P49591). Briefly: EMSA. Particulars: dramatically weakened; EMSA: 20 mM Tris-HCl pH 8.0, 60 mM KCl, 5 mM MgCl2, 0.1 mg/ml BSA, 10 ng/ul poly(dG-dC), 1 mM DTT, 30 min, room temperature; recombinant protein; label: 5' 32P; letters put together from the description.

Consider “GGCGGGGCGGAGCCATGCGCCCCCCCC (double strand) [VEGFA promoter 27-bp (-62 to -36)]”, for which the binding result in data set [1] and in data set [2] was “binds more weakly” in each case.
